Sequences of proteins named here, by UniProt entry; tags and fusion partners are left off.
UniProt P18054, whole entry, looked up: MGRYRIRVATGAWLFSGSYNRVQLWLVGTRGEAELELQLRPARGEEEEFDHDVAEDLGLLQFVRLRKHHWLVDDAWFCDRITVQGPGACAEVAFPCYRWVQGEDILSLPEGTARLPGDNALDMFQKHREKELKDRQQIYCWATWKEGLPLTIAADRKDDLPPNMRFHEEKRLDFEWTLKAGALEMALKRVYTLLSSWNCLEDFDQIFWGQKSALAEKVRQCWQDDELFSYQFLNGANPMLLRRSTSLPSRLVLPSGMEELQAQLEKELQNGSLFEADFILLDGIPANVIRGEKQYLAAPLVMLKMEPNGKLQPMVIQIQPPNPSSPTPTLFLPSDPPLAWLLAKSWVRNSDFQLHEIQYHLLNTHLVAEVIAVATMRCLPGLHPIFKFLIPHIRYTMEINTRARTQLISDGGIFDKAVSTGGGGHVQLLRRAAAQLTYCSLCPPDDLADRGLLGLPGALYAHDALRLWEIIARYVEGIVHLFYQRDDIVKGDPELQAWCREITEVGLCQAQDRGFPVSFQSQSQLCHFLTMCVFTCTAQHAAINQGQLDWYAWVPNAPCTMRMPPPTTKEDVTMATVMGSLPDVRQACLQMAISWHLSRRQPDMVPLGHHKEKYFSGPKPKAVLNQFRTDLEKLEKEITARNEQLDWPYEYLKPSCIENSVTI

The whole screen tested about 580,000 compounds, of which about 6,100 (1.1%) were called active. Inconclusive means that the source gave no clear call. Such entries were picked first, then a sample of the others. Calls come from the whole dose curve; as a rule, active = well fitted inhibition curve with a large enough effect; inconclusive = small, poorly fitted or top-dose-only effect, or another doubt; inactive = no such curve, though single readings can be large or run the other way. Potencies of inconclusive entries are doubtful fits and often do not repeat.
These compounds were tested against Polyunsaturated fatty acid lipoxygenase ALOX12 (Homo sapiens) (UniProt P18054) (assay: Primary qHTS assay for inhibitors of human arachidonate 12S-lipoxygenase (ALOX12): Round 2). Details: purified 12hLO, xylenol orange hydroperoxide absorbance; activity change, negative = inhibition: at 108 µM (top of the series) unless noted.
How it was run: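 Purified human 12hLO at 150 nM in 25 mM Hepes, 0.01% Triton X-100, pH 7.0, preincubated 15 min at room temperature with compound. Reaction started with 40 uM arachidonic acid, 30 min at room temperature. Hydroperoxide measured by Fe-xylenol orange, 573/405 nm absorbance ratio.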
With `Fc1cccc(Cc2c(-c3ccc(Cl)cc3)nc3ccc(Cl)cn23)c1` the Potency was inconclusive: 44.7 µM [inhibitor, partial curve]. With `C#CCN1C=CC(=O)[C@@H](OC(=O)Nc2ccc(OC)cc2)[C@H]1c1ccccc1Br` the Potency was inconclusive: 39.8 µM [inhibitor, single point]. For `CCc1nonc1NC(=O)COc1ccc(Cl)c(C)c1`, the Potency was inconclusive: 100 µM [inhibitor, single point]. In the case of `O=C(NCCO[N+](=O)[O-])c1cccnc1`, the Potency is reported as inconclusive: 10 µM [inhibitor, partial curve, poor fit]. In the case of `CC(C)Oc1ccc(Cn2c(-c3ccco3)n[nH]c2=S)cc1`, the Potency is reported as inconclusive: 31.6 µM [inhibitor, partial curve, poor fit]. `CCOc1ccc(CCC2CCN(C(=O)Nc3ccccc3)CC2)cc1` was tested, and the Potency was “inactive”. `CCOC(=O)c1c(S(=O)(=O)N2CCCC(C(=O)Nc3cccc(CC)c3)C2)c(C)n(CC)c1C` (stereo not given) was tested, and the Potency was inconclusive: 63.1 µM [inhibitor, partial curve, poor fit]. `Cn1c(N)c(C(=O)Nc2ccccc2)c(=O)[nH]c1=O` was tested, and the Potency was “inactive”. With `CC1CCc2c(sc3ncnc(NS(=O)(=O)c4cccs4)c23)C1` (stereo not given) the Potency was inconclusive: 50.1 µM [inhibitor, partial curve, poor fit]. For `Cc1cc2c(Nc3ccc(O)cc3)ncnc2s1`, the Potency was inconclusive: 44.7 µM [inhibitor, partial curve, poor fit]. `Cc1c(CC(=O)NCC(=O)O)c(=O)oc2cc3oc4c(c3cc12)CCCC4` was tested, and the Potency was “inactive”. With `Oc1cccc(/C=N/NC(=S)Nc2cccnc2)c1O` the Potency was active: 44.7 µM. In the case of `CC(=O)Nc1ccc(NC(=O)C(C)OC(=O)c2ccc(OCc3c(C)noc3C)cc2)cc1` (stereo not given), the Potency is reported as “inactive”. `COc1cccc(C2CC(=O)Nc3nc(C)[nH]c(=O)c32)c1OC` (stereo not given) was tested, and the Potency was “inactive”. With `COc1ccc(Cl)cc1-c1ncc2c(n1)OCCN(Cc1ccc(F)cc1F)C2=O` the Potency was “inactive”. For `CN1CCC(N2CCN(C3CN(CCc4ccccc4)S(=O)(=O)C3)CC2)CC1` (stereo not given), the activity change, negative = inhibition was inconclusive: -43.6% [inhibitor]. For `Cc1nn(-c2ccc(N3CCCC3)nn2)c(C)c1CCC(=O)NCCc1ccco1`, the Potency was inconclusive: 7.94 µM [inhibitor, full curve, poor fit]. For `CCOC(=O)c1cc(S(=O)(=O)Nc2cccc(C)c2C)[nH]n1`, the Potency was inconclusive: 14.1 µM [inhibitor, partial curve, poor fit]. In the case of `COc1ccc(OC)c(C(=O)N2CCc3c(cnc(C)c3CNS(=O)(=O)N(C)C)C2)c1`, the Potency is reported as inconclusive: 126 µM [inhibitor, single point]. In the case of `CC(=O)N1CCN(Cc2nc3cc(NC(=O)Nc4ccccc4)ccc3n2C)CC1`, the Potency is reported as inconclusive: 100 µM [inhibitor, single point]. For `COc1ccccc1C1/C(=C(/O)c2ccccc2)C(=O)C(=O)N1CC(C)O` (stereo not given), the Potency was active: 3.55 µM. For `COc1cccc2cc(C(=O)N3CCC(C)CC3)c(=O)oc12`, the Potency was inconclusive: 50.1 µM [inhibitor, partial curve, poor fit]. For `COCc1cc(C2C(C(=O)c3ccco3)=C(O)C(=O)N2CCOCCO)ccc1O` (stereo not given), the Potency was inconclusive: 3.55 µM [inhibitor, full curve, poor fit]. With `COC[C@@H]1CCCN1c1ccc2c(c1)O[C@@H](COCc1ccccc1)CN([C@@H](C)c1ccccc1)S2(=O)=O` the Potency was “inactive”. `Cn1nc(C(=O)Nc2cc(-c3cccc(Cl)c3)no2)c2c1-c1ccccc1OC2` was tested, and the Potency was inconclusive: 25.1 µM [inhibitor, partial curve, poor fit]. `CC(=O)c1cccc(-c2ccnc3c2CC(C(=O)NCc2ccc(N4CCN(C)CC4)cc2)O3)c1` (stereo not given) was tested, and the Potency was inconclusive: 89.1 µM [inhibitor, single point]. `O=C(COc1ccccc1)Nc1nnc(-c2ccco2)o1` was tested, and the Potency was “inactive”. With `CCCCCCNC(=S)Nc1ccc(F)cc1` the Potency was inconclusive: 50.1 µM [inhibitor, partial curve, poor fit]. With `Cc1cccc(CNC(=O)Cn2nc(C)c3nn(-c4ccc(Cl)cc4)c(C)c3c2=O)c1` the Potency was inconclusive: 112 µM [inhibitor, partial curve, poor fit]. `CC1(C(=O)NS(=O)(=O)c2cccc(Cl)c2)CCN1C(=O)C/C=C/c1ccccc1` (stereo not given) was tested, and the Potency was inconclusive: 17.8 µM [inhibitor, full curve]. `CCn1nc(C)c(CCC(=O)NC2CCCc3c2[nH]c2ccccc32)c1C` (stereo not given) was tested, and the Potency was inconclusive: 14.1 µM [inhibitor, partial curve]. `COc1cccc(NC(=O)c2ccc(-c3ccc([N+](=O)[O-])cc3)o2)c1` was tested, and the Potency was “inactive”. For `COc1cc(OC)cc(C(=O)NNC(=O)c2ccccn2)c1`, the Potency was “inactive”. `COC(=O)c1sc2nc3c(cc2c1N)CCCC3` was tested, and the Potency was inconclusive: 35.5 µM [inhibitor, partial curve]. In the case of `Cc1ccc(Cl)c(Nc2ccccc2C(=O)O)c1Cl`, the Potency is reported as “inactive”. In the case of `O=C(CSc1nc(Nc2ccccc2)c2ccccc2n1)c1ccc(Cl)cc1`, the activity change, negative = inhibition is reported as inconclusive: -33.7% [inhibitor]. `CC(=O)Nc1ccc(CN2CCN(CCC(C)C)C(CCO)C2)cc1` (stereo not given) was tested, and the Potency was “inactive”. For `Cc1cc(Cl)c(OCCCNCc2ccccc2)c(Br)c1`, the Potency was inconclusive: 11.2 µM [inhibitor, partial curve, poor fit]. For `O=C(O)/C=C\C(=O)NNC(=O)c1cc(-c2ccccc2)n[nH]1`, the Potency was inconclusive: 44.7 µM [inhibitor, partial curve, poor fit]. With `Cc1ccc(NC(=O)c2cnc(-c3ccccc3)nc2-c2ccncc2)c(Br)c1` the Potency was inconclusive: 50.1 µM [inhibitor, single point]. `Cc1ccc(-c2ccc(C(=O)O)n2C)cc1` was tested, and the Potency was inconclusive: 5.01 µM [inhibitor, full curve, poor fit]. For `COc1ccc(C2(C(=O)NCCc3ccc(F)cc3)CCOCC2)cc1`, the activity change, negative = inhibition was inactive: -0.545% [at 6.33 µM]. With `CCN(CC)c1ccc(NC(=S)NC(=O)c2ccco2)cc1` the Potency was inconclusive: 50.1 µM [inhibitor, partial curve, poor fit]. `CC(=O)Nc1ccc2ccc3cccc4ccc1c2c34` was tested, and the Potency was “inactive”. With `Fc1ccccc1-c1nnc(SCc2ccc3ccccc3n2)n1C1CC1` the Potency was inconclusive: 89.1 µM [inhibitor, single point]. `CC(C)C(=O)Nc1ccc(C(=O)Nc2ccc(Cl)cn2)cc1` was tested, and the Potency was “inactive”. With `Cc1nnc(SCC(=O)NC(=O)Nc2ccc3c(c2)OCCO3)n1N` the Potency was “inactive”. In the case of `Cc1ccc(NC(=O)CSc2ncc(S(=O)(=O)c3ccccc3)c(=O)[nH]2)cc1C`, the Potency is reported as “inactive”. In the case of `O=C(Nc1ccc(Cl)cn1)C1CCCN1S(=O)(=O)c1ccc(Cl)cc1` (stereo not given), the Potency is reported as inconclusive: 79.4 µM [inhibitor, partial curve, poor fit]. In the case of `Fc1ccccc1-c1csc(-c2cccnc2)n1`, the Potency is reported as “inactive”. `COc1ccc(-c2cc(NC=O)c3ncc(-c4ccc(OC)c(OC)c4)n3c2)c(OC)c1` was tested, and the Potency was active: 56.2 µM. In the case of `Cn1ccnc1SCC(=O)Nc1cccc(C(F)(F)F)c1`, the Potency is reported as “inactive”. For `CCN1/C(=C/C=C/c2oc3ccc(-c4ccccc4)cc3[n+]2CC)Oc2ccc(-c3ccccc3)cc21`, the Potency was inconclusive: 39.8 µM [inhibitor, partial curve, poor fit]. For `Cn1c(=O)c2c(nc(N3CCCCCC3)n2Cc2cccc3ccccc23)n(C)c1=O`, the Potency was “inactive”. For `CC(C)(C)OC(=O)NCCc1n[nH]c(=S)o1`, the Potency was inconclusive: 100 µM [inhibitor, single point]. In the case of `COc1ccc(CSc2nnnn2-c2ccc(O)cc2)cc1F`, the Potency is reported as inconclusive: 50.1 µM [inhibitor, partial curve, poor fit]. `Cn1cnc(S(=O)(=O)NCc2cccs2)c1` was tested, and the Potency was “inactive”. With `CCOC(=O)C1CCN(C(=O)CCc2nnc3ccc(N4CCC(C)CC4)nn23)CC1` the Potency was “inactive”. With `O=C1Nc2ccc(I)cc2C1=Cc1cc(Br)c(O)c(Br)c1` the Potency was inconclusive: 21.7 µM [inhibitor, partial curve, poor fit]. With `CCN(C(=O)COC(=O)c1ccc[nH]c1=O)c1cccc2ccccc12` the Potency was inconclusive: 56.2 µM [inhibitor, partial curve, poor fit]. In the case of `COc1ccc(C2CC(c3cccs3)=NN2C(=O)CSc2nc(=O)n3cc(C)ccc3n2)cc1` (stereo not given), the Potency is reported as inconclusive: 2.24 µM [inhibitor, full curve, poor fit]. For `CC(C)c1nc(NCc2ccccc2Cn2cccn2)c2cnn(C)c2n1`, the Potency was “inactive”. For `CCC(C)[C@H]1CNCCN1CCCc1cc(OC)c(OC)c(OC)c1` (stereo not given in full), the Potency was inconclusive: 35.5 µM [inhibitor, partial curve, poor fit]. With `NC(=O)C12C(=O)NC(=O)C1(C(=O)O)C21CCCC1` (stereo not given) the Potency was inconclusive: 63.1 µM [inhibitor, partial curve, poor fit]. For `O=C(Cn1nc(-c2cccs2)c2ccccc2c1=O)NCCc1ccc(Cl)cc1`, the Potency was inconclusive: 100 µM [inhibitor, single point]. For `C#CCN1CC(C)/C(=N/O)CC1C` (stereo not given), the Potency was inconclusive: 25.1 µM [inhibitor, partial curve, poor fit]. For `O=C(O)CSCc1cccnc1`, the Potency was inconclusive: 56.2 µM [inhibitor, full curve, poor fit]. `COC(=O)Cc1ccc(NC(=S)NCC(C)C)cc1` was tested, and the Potency was inconclusive: 50.1 µM [inhibitor, partial curve, poor fit]. For `CCc1cccc(C)c1Nc1nn2c(=O)c3ccccc3nc2s1`, the Potency was inconclusive: 112 µM [inhibitor, partial curve, poor fit]. `CC(C)(C)C(=O)NC(=S)N1CCOCC1` was tested, and the Potency was “inactive”.

— PubChem BioAssay AID1671190 (National Center for Advancing Translational Sciences (NCATS), 2021)
% is set by controls: 0 for no effect and ±100 for the full control effect; potency is the fitted concentration of half-maximal effect.
